From PubChem BioAssay AID504467 (National Center for Advancing Translational Sciences (NCATS), 2011)
Out of some 330,000 compounds screened, about 7,700 (2.3%) were called active. The shares of active, inactive and inconclusive entries below differ from those in the screen. The call rests on the fitted dose curve; in most records, active means well fitted inhibition curve with a large enough effect; inconclusive means small, poorly fitted or top-dose-only effect, or effect the other way; inactive means flat fitted curve, though single readings scatter. Where the call is inconclusive, the potency comes from a doubtful curve fit.

assay: qHTS screen for small molecules that inhibit ELG1-dependent DNA repair in human embryonic kidney (HEK293T) cells expressing luciferase-tagged ELG1; settings: HEK293T ELG1-luciferase reporter, luminescence, 16 h, DNA damage induced by 5-fluorouridine; activity change, negative = inhibition: at 46.1 µM (top of the series); further: nearly all actives have a fitted effect of over 55% in size
Procedure, shortened: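 5-Fluorouridine DNA damage + compound/DMSO, 2,000 cells/well, 16 h, 37 °C/5% CO2. ONE-Glo, 30 min RT, luminescence. Readout = decrease in reporter signal.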
On the % scale 0 is the no-effect control and ±100 the full control effect; potency means the concentration at half of the fitted maximal effect.

Row | Compound | Potency | activity change, negative = inhibition
1 | Cc1ccc(OCC(=O)Nc2cccc3nsnc23)c(C)c1 | inconclusive: 11.6 µM [activator, partial curve] | –
2 | Clc1ncnc2c1oc1ccccc12 | inconclusive: 9.2 µM [activator, partial curve] | –
3 | Clc1ccc2c(c1)-c1nnc(Br)n1-c1ccccc1S2 | – | inactive: 1.19%
4 | CCN1CCN(CCc2nc3cc(NC(=O)COc4ccc(Cl)cc4)ccc3n2C)CC1 | – | inactive: 1.26%
5 | O=C(Nc1cccc2ccccc12)c1cnccn1 | inconclusive: 20.6 µM [activator, partial curve] | –
6 | CCOC(=O)C1=CN(Cc2ccc(OC)cc2)C=C(C(=O)OCC)C1c1cccs1 | inconclusive: 29.1 µM [inhibitor, single point] | –
7 | CC(=O)N(C(C)=O)c1ncc2c([nH]c3ccccc32)c1C#N | inconclusive: 10 µM [inhibitor, partial curve, poor fit] | –
8 | O=C1COc2ccc(C(=O)CSc3nnc(Cc4cccs4)n3-c3ccccc3)cc2N1 | inconclusive: 23.1 µM [inhibitor, single point] | –
9 | N#C/C(=C\c1cccnc1)C(=O)Nc1ccccc1[N+](=O)[O-] | inconclusive: 29.1 µM [inhibitor, single point] | –
10 | CCCN1C(=O)/C(=C/c2ccc(C)o2)SC1=Nc1ccc(OC)cc1 | inconclusive: 0.58 µM [activator, partial curve] | –
11 | Nc1nc(Nc2ccccc2)nc(NCc2ccco2)c1[N+](=O)[O-] | inconclusive: 16.4 µM [inhibitor, single point] | –
12 | CCn1c(O)c(C=NC2CCCC(C)C2C)sc1=S (stereo not given) | inconclusive: 23.1 µM [activator, partial curve] | –
13 | COc1cc(NC(=O)COC(=O)c2n[nH]c3ccccc23)c(C)cc1[N+](=O)[O-] | inconclusive: 29.1 µM [inhibitor, single point] | –
14 | CN(C)S(=O)(=O)c1ccc(NC(=O)C2CC3C=CC2C3)cc1 (stereo not given) | – | inactive: 1.08%
15 | CC1CCCN(c2nc3c(c(=O)n(C)c(=O)n3C)n2Cc2ccccc2)C1 (stereo not given) | inconclusive: 23.1 µM [inhibitor, single point] | –
16 | COc1cccc(C(=O)Nc2nnc(S(=O)(=O)N(C)Cc3ccccc3)s2)c1 | – | inactive: 1.44%
17 | S=C(NCc1ccco1)Nc1ccc(Cl)cc1 | inconclusive: 29.1 µM [activator, single point] | –
18 | CCN(CC)c1ccc(/C=N/NC(=O)c2cccc(S(=O)(=O)N3CCOCC3)c2)c(O)c1 | inconclusive: 2.31 µM [inhibitor, partial curve] | –
19 | NC(=O)C1CCN(CC(=O)c2c[nH]c3ccc(F)cc23)CC1 | – | inactive: 4.27%
20 | O=C(NCc1nnc(SCC(=O)N2CCC(Cc3ccccc3)CC2)o1)c1ccccc1F | – | inactive: -28.7%
21 | Nc1c(S(=O)(=O)c2ccccc2)c2nc3ccccc3nc2n1/N=C/c1ccco1 | inconclusive: 9.2 µM [inhibitor, partial curve, poor fit] | –
22 | O=C(Nc1cccc(-c2nnc(-c3ccco3)o2)c1)c1ccccc1 | – | inactive: -25.8%
23 | FC(F)Sc1ccc(NC(=S)NC(c2ccccc2)c2ccccc2)cc1 | – | inactive: -8.16%

4 compounds already listed, sorted by length of the SMILES, falling:
Row | Compound | Potency | activity change, negative = inhibition
16 | COc1cccc(C(=O)Nc2nnc(S(=O)(=O)N(C)Cc3ccccc3)s2)c1 | – | inactive: 1.44%
10 | CCCN1C(=O)/C(=C/c2ccc(C)o2)SC1=Nc1ccc(OC)cc1 | inconclusive: 0.58 µM [activator, partial curve] | –
14 | CN(C)S(=O)(=O)c1ccc(NC(=O)C2CC3C=CC2C3)cc1 (stereo not given) | – | inactive: 1.08%
3 | Clc1ccc2c(c1)-c1nnc(Br)n1-c1ccccc1S2 | – | inactive: 1.19%

More entries follow.

Row | Compound | Potency | activity change, negative = inhibition
24 | CC(O)[C@H]1CNCCN1CCc1cccc2ccccc12 (stereo not given in full) | inconclusive: 29.1 µM [activator, single point] | –
25 | CCc1nnc(NC(=O)C=C(C)C)s1 | inconclusive: 20.6 µM [activator, partial curve] | –
26 | C/C(CC(=O)Nc1ccc2c(c1)OCO2)=N\NC(=O)c1ccccc1N | – | inactive: 4.6%
27 | COc1ccccc1Nc1nc(N)nc(CCl)n1 | inconclusive: 23.1 µM [activator, single point] | –
28 | CCSc1nc2ccc(N3C(=O)C4C5C=CC(C5)C4C3=O)cc2s1 (stereo not given) | inconclusive: 5.8 µM [activator, partial curve] | –
29 | COc1ccc(OC)c(C2/C(=C(/O)c3cnn(-c4ccccc4)c3C)C(=O)C(=O)N2CCN(C)C)c1 (stereo not given) | inconclusive: 20.6 µM [inhibitor, partial curve, poor fit] | –
30 | CCN(CC)S(=O)(=O)c1ccc2c(c1)[nH]c(=S)n2CC | inconclusive: 20.6 µM [activator, partial curve] | –
31 | CCOc1ccccc1NC(=O)COC(=O)c1c(CC)noc1C | – | inactive: 10.6%
32 | O=C(c1cc(C2CC2)nn1-c1ccccc1)N1CCN(Cc2c(F)cccc2Cl)CC1 | inconclusive: 18.3 µM [inhibitor, partial curve, poor fit] | –
33 | CCC(=O)c1ccc(OCC(=O)Nc2nc(-c3cccnc3)cs2)cc1 | inconclusive: 6.51 µM [inhibitor, partial curve, poor fit] | –
34 | CC1(C)CC(=O)C2=C(C1)NC(=O)CC2c1cc2c(cc1Br)OCO2 (stereo not given) | inconclusive: 14.6 µM [activator, single point] | –
35 | O=c1ccc2cc3c([nH]c4ccc(Br)cc43)oc-2c1O | inconclusive: 29.1 µM [activator, single point] | –
36 | Cc1ccc2c(Cl)c(C(=O)NCC3CCCO3)sc2c1 (stereo not given) | inconclusive: 16.4 µM [activator, partial curve] | –
37 | CNC(=O)c1c(NC(=O)c2cccc(N3C(=O)CCC3=O)c2)sc2c1CCCC2 | inconclusive: 20.6 µM [activator, partial curve] | –
38 | COc1cc(NC(=O)CSc2nc3ccccc3n2-c2ccccc2)c(C)cc1[N+](=O)[O-] | inconclusive: 13 µM [inhibitor, partial curve] | –
39 | CCCCNC(=S)Nc1cc([N+](=O)[O-])ccc1C | – | inactive: 1.63%
40 | COc1cc(C2C(C#N)=C(N)Oc3c2ccc2ccccc32)ccc1OCC(=O)Nc1cccc(C)c1 (stereo not given) | active: 9.2 µM | –
41 | CCn1c(C)nc2cc(S(=O)(=O)N3CCCCC3)ccc21 | active: 18.4 µM | –
42 | O=C(N/N=C/C=C/c1ccco1)c1ccccc1Cl | inconclusive: 10.3 µM [activator, partial curve, poor fit] | –
43 | CC(=O)N/N=C(\C)c1ccc2c(c1)OCCO2 | inconclusive: 23.1 µM [activator, single point] | –
44 | O=C(NCCc1csc(-c2ccc(C(F)(F)F)cc2)n1)c1cccs1 | – | inactive: -26.4%
45 | CC(=O)c1ccc(CC2SC(N)=NC2=O)cc1 (stereo not given) | – | inactive: 1.59%
